# Data as given in the supplement of paper PMC10032668.
# The chains behind the UniProt entries cited, without tags or fusion partners.
# CDC27, P30260, UniProt P30260, whole entry: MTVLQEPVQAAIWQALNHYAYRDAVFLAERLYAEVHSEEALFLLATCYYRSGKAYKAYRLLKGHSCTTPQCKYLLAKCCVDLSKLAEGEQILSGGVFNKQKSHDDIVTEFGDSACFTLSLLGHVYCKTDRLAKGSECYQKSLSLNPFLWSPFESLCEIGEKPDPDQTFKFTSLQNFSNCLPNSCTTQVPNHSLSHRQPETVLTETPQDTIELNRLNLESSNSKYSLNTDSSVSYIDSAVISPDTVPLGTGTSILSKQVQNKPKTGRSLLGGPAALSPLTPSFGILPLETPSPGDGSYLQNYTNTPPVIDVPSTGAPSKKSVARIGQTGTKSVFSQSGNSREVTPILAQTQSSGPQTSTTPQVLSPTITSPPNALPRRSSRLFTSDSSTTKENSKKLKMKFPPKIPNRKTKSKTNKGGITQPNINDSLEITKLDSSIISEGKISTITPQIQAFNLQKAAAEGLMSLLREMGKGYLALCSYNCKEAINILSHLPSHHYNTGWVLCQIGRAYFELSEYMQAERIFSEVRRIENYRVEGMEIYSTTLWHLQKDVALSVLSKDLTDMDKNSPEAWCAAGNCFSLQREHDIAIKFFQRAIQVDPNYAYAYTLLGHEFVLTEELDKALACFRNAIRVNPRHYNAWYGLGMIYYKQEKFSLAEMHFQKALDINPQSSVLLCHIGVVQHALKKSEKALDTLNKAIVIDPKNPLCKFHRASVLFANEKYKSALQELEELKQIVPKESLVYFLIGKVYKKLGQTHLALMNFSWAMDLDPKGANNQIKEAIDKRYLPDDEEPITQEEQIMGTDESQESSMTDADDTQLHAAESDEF
# EIF3M, Q7L2H7, UniProt Q7L2H7, whole entry: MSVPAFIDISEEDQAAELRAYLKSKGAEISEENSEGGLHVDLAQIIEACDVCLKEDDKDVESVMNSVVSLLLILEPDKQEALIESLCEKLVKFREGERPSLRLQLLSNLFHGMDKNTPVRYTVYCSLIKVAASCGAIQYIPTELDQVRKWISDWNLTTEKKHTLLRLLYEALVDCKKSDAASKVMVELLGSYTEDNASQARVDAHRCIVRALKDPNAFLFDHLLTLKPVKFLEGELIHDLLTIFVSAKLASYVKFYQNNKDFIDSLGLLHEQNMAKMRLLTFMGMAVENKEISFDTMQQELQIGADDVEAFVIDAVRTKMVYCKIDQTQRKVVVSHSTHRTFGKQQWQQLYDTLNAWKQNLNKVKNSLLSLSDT
# HSPB1, P04792, UniProt P04792, whole entry: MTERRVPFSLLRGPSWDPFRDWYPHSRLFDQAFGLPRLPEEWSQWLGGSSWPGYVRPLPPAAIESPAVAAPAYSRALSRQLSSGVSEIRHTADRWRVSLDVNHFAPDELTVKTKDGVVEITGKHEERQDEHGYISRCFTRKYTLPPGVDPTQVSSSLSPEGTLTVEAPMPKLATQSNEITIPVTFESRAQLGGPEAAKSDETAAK
# KPNA3, O00505, UniProt O00505, whole entry: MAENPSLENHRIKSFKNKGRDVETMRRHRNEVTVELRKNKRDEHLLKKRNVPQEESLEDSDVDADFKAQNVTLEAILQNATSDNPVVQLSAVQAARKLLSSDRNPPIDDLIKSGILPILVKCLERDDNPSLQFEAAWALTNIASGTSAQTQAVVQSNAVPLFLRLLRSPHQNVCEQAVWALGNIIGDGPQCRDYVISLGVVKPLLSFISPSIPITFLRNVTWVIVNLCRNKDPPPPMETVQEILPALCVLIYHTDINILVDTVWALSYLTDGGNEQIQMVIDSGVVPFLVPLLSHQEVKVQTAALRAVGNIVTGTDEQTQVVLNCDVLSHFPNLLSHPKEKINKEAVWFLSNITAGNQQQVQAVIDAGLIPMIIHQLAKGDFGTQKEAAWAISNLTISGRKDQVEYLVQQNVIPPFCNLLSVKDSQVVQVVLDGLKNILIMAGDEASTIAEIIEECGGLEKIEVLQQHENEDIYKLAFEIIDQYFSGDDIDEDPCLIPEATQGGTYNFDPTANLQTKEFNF
# MECP2, P51608, UniProt P51608, whole entry: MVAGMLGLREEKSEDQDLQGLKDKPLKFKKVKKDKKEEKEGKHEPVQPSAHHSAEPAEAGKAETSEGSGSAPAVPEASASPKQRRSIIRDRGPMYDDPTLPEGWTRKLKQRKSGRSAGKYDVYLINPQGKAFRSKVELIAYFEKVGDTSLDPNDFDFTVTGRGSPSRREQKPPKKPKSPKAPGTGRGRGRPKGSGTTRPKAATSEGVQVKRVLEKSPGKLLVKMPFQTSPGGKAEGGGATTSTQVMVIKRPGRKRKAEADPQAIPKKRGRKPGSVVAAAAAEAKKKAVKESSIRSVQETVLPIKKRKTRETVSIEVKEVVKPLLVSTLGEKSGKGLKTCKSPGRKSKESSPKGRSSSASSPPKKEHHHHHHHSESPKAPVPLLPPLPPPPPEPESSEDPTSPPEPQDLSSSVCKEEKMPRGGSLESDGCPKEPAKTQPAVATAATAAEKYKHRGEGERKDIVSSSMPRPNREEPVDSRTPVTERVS
# NELFB, Q8WX92, UniProt Q8WX92, whole entry: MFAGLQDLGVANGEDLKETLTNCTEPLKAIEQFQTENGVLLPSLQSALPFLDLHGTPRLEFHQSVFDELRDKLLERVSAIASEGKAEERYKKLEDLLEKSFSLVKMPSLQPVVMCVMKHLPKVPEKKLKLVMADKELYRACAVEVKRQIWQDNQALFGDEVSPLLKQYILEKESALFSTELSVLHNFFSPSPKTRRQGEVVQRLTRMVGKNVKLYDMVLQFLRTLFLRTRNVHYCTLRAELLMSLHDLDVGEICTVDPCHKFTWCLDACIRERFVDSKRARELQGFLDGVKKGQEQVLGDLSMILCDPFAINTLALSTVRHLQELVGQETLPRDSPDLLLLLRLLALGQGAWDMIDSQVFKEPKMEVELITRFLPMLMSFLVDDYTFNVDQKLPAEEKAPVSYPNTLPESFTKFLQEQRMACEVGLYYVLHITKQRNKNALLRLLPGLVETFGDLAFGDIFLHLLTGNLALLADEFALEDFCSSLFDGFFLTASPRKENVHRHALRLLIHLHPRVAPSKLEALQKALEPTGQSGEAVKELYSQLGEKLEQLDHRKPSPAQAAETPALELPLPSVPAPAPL
# PDHA1, P08559, UniProt P08559, whole entry: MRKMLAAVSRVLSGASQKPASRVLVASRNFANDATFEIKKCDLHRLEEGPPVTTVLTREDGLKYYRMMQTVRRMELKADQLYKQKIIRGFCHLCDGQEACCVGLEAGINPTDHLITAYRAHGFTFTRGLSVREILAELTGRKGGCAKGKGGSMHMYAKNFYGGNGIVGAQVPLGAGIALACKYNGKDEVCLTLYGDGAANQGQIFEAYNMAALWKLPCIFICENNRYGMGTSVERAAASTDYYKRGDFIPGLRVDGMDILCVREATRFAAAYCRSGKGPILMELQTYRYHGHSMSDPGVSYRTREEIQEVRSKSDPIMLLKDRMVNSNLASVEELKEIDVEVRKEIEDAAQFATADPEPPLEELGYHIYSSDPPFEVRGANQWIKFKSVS
# PHF3, Q92576, UniProt Q92576, whole entry: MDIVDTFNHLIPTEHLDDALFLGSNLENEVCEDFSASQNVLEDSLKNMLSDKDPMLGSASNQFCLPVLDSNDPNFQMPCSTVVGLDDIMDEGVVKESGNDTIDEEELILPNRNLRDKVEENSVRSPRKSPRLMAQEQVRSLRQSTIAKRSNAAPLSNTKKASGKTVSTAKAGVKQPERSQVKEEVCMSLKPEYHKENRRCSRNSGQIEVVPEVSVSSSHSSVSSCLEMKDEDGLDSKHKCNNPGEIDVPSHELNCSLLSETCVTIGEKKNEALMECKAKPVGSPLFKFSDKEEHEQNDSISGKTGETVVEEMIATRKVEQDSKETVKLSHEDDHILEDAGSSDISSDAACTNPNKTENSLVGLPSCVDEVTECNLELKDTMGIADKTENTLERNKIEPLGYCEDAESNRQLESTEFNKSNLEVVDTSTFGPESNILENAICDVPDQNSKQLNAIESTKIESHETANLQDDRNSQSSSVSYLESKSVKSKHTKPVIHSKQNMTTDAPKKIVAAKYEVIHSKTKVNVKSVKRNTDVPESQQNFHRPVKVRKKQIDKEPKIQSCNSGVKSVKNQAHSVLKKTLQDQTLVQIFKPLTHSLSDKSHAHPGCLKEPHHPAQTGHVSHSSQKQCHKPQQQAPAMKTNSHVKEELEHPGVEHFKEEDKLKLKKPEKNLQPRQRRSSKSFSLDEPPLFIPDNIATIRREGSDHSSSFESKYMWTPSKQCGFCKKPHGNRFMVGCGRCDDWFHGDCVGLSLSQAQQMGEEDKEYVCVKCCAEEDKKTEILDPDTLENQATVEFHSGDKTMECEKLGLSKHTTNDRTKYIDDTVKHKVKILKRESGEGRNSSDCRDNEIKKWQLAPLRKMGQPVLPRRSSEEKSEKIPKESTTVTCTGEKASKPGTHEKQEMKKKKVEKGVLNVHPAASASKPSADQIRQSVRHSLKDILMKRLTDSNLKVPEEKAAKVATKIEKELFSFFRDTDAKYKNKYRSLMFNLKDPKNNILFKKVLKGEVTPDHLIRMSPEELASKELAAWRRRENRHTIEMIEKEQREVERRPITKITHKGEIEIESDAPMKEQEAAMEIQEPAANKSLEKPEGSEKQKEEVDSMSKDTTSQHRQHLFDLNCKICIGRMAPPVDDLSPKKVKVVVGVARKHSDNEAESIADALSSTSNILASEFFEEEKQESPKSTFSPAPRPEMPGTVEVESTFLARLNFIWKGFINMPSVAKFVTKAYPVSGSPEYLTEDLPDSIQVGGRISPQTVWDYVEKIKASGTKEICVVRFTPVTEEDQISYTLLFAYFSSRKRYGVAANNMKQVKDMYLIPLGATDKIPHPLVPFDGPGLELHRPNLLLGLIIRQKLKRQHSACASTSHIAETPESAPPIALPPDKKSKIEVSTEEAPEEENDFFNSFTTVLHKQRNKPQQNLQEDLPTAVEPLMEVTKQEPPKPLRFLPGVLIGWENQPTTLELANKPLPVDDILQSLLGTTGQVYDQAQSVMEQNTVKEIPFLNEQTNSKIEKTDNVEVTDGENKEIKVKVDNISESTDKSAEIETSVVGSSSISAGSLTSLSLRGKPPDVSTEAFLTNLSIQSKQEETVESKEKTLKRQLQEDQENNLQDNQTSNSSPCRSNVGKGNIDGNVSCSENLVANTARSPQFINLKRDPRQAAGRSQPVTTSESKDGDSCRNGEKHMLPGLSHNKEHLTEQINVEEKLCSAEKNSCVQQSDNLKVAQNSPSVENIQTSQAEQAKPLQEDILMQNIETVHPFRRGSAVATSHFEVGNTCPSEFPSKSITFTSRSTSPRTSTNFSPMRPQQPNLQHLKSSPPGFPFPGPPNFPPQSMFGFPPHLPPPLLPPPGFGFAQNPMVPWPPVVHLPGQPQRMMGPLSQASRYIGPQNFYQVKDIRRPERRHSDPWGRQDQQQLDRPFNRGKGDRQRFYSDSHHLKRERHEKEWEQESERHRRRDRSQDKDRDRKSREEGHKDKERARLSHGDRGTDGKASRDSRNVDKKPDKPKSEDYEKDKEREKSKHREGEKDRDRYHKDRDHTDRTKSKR
# PPP2R5D, Q14738, UniProt Q14738, whole entry: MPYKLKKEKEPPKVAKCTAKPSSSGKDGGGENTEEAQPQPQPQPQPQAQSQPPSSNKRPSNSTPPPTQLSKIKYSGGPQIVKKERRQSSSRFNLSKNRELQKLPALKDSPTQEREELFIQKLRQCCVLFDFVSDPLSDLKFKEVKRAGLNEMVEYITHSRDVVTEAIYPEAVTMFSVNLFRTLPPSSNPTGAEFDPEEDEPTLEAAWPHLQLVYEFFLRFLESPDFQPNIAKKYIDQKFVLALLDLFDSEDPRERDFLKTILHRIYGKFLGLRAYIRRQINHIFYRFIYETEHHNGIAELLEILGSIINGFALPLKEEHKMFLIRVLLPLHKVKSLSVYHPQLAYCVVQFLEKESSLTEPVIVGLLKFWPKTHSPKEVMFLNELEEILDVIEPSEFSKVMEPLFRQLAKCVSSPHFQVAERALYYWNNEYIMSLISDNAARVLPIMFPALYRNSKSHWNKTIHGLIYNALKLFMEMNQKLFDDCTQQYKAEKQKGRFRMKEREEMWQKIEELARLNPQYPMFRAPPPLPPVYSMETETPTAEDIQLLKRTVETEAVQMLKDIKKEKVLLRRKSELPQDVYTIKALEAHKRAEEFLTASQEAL
# EXOSC4, Q9NPD3, UniProt Q9NPD3, whole entry: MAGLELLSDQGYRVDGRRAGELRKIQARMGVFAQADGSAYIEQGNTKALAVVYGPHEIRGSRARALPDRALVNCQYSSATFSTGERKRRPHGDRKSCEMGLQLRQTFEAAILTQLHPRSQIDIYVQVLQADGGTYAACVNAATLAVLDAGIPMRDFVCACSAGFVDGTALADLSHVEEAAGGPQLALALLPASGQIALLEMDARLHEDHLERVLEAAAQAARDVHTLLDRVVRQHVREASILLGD
# VAPB, O95292, UniProt O95292, whole entry: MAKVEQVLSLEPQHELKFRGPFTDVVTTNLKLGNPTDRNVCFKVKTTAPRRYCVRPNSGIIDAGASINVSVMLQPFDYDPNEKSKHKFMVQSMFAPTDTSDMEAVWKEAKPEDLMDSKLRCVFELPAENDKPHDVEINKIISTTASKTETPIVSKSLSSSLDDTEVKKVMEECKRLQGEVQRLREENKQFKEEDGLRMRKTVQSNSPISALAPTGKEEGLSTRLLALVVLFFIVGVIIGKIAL
# The other results are listed elsewhere or left out. The list holds hits alone, and they repeat only in part.
# What was measured:
# Experiment in all cases: PRISMA enrichment of interactor (LFQ) in peptide spot vs all other peptide spots (log2 fold change); higher = stronger / more specific binding of the interactor to the peptide
# [1] = molecular target: ADRM1, Q16186
# Method: (§1)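 PRISMA: 15-aa overlapping tiles (offset 8 aa) of 60 microproteins, plus SOS1/GLUT1 control peptides, were spot-synthesized on cellulose membranes in triplicate. Membranes were incubated with benzonase-treated HEK293T lysate, and bound proteins were identified by LC-MS/MS with LFQ. Enrichment is the log2 fold change of each protein in one spot versus all other spots. Only interactors passing the significance cutoff are listed.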
# [2] = molecular target: ARMC6, Q6NXE6
# Method: as §1
# [3] = molecular target: ATP6V1A, P38606
# Method: as §1
# [4] = molecular target: CDC27, P30260
# Method: as §1
# [5] = molecular target: CIRBP, Q14011
# Method: as §1
# [6] = molecular target: CPS1, P31327
# Method: as §1
# [7] = molecular target: DAP3, P51398
# Method: as §1
# [8] = molecular target: DCTN5, Q9BTE1
# Method: as §1
# [9] = molecular target: DEK, P35659
# Method: as §1
# [10] = molecular target: DLST, P36957
# Method: as §1
# [11] = molecular target: EIF3K, Q9UBQ5
# Method: as §1
# [12] = molecular target: EIF3M, Q7L2H7
# Method: as §1
# [13] = molecular target: FKBP8, Q14318
# Method: as §1
# [14] = molecular target: FLOT2, Q14254
# Method: as §1
# [15] = molecular target: GCFC2, P16383
# Method: as §1
# [16] = molecular target: GNL1, P36915
# Method: as §1
# [17] = molecular target: HNRNPF, P52597
# Method: as §1
# [18] = molecular target: HPRT1, P00492
# Method: as §1
# [19] = molecular target: HSPB1, P04792
# Method: as §1
# [20] = molecular target: KPNA3, O00505
# Method: as §1
# [21] = molecular target: LRRC40, Q9H9A6
# Method: as §1
# [22] = molecular target: MACF1
# Method: as §1
# [23] = molecular target: MECP2, P51608
# Method: as §1
# [24] = molecular target: MRPL58, Q14197
# Method: as §1
# [25] = molecular target: MRPS28, Q9Y2Q9
# Method: as §1
# [26] = molecular target: NELFB, Q8WX92
# Method: as §1
# [27] = molecular target: NOP14, P78316
# Method: as §1
# [28] = molecular target: NSD2, O96028
# Method: as §1
# [29] = molecular target: NTMT1, Q9BV86
# Method: as §1
# [30] = molecular target: PCM1, Q15154
# Method: as §1
# [31] = molecular target: PDHA1, P08559
# Method: as §1
# [32] = molecular target: PDLIM1, O00151
# Method: as §1
# [33] = molecular target: PDP1, Q9P0J1
# Method: as §1
# [34] = molecular target: PHF3, Q92576
# Method: as §1
# [35] = molecular target: POLR2H, P52434
# Method: as §1
# [36] = molecular target: PPP2R5D, Q14738
# Method: as §1
# [37] = molecular target: PUS1, Q9Y606
# Method: as §1
# [38] = molecular target: RAVER1, Q8IY67
# Method: as §1
# [39] = molecular target: SYNCRIP, O60506
# Method: as §1
# [40] = molecular target: TALDO1, P37837
# Method: as §1
# [41] = molecular target: TARS, P26639
# Method: as §1
# [42] = molecular target: TMEM263, Q8WUH6
# Method: as §1
# [43] = molecular target: TRIM27, P14373
# Method: as §1
# [44] = molecular target: TTF2, Q9UNY4
# Method: as §1
# [45] = molecular target: VRK1, Q99986
# Method: as §1
# [46] = molecular target: WBP11, Q9Y2W2
# Method: as §1
# [47] = molecular target: ZC2HC1A, Q96GY0
# Method: as §1
# [48] = molecular target: R3HDM1, Q15032
# Method: as §1
# [49] = molecular target: RAB14, P61106
# Method: as §1
# [50] = molecular target: RANBP6, O60518
# Method: as §1
# [51] = molecular target: RFC3, P40938
# Method: as §1
# [52] = molecular target: RIOK2, Q9BVS4
# Method: as §1
# [53] = molecular target: S100A9, P06702
# Method: as §1
# [54] = molecular target: SLC39A7, Q92504
# Method: as §1
# [55] = molecular target: TENT4B, Q8NDF8
# Method: as §1
# [56] = molecular target: TRIR, Q9BQ61
# Method: as §1
# [57] = molecular target: UBA1, P22314
# Method: as §1
# [58] = molecular target: AFF3, P51826
# Method: as §1
# [59] = molecular target: ALDH7A1, P49419
# Method: as §1
# [60] = molecular target: CAPZA1, P52907
# Method: as §1
# [61] = molecular target: CHAMP1, Q96JM3
# Method: as §1
# [62] = molecular target: CIP2A, Q8TCG1
# Method: as §1
# [63] = molecular target: ECT2, Q9H8V3
# Method: as §1
# [64] = molecular target: EXOSC4, Q9NPD3
# Method: as §1
# [65] = molecular target: GABARAPL2, P60520
# Method: as §1
# [66] = molecular target: GTPBP4, Q9BZE4
# Method: as §1
# [67] = molecular target: HIST1H1E, P10412
# Method: as §1
# [68] = molecular target: KIFC1, Q9BW19
# Method: as §1
# [69] = molecular target: MED12, Q93074
# Method: as §1
# [70] = molecular target: MOV10, Q9HCE1
# Method: as §1
# [71] = molecular target: PSAT1, Q9Y617
# Method: as §1
# [72] = molecular target: RALGAPA1, Q6GYQ0
# Method: as §1
# [73] = molecular target: REXO4, Q9GZR2
# Method: as §1
# [74] = molecular target: SCRIB
# Method: as §1
# [75] = molecular target: VAPB, O95292
# Method: as §1
# [76] = molecular target: ZNF622, Q969S3
# Method: as §1
binder,measurement,setting,value
ALPLLSSLCMAMVRK [IDI2-AS1],PRISMA enrichment of interactor (log2),[1],4.41
same,PRISMA enrichment of interactor (log2),[2],7.43
same,PRISMA enrichment of interactor (log2),[3],4.65
same,PRISMA enrichment of interactor (log2),[4],7.07
same,PRISMA enrichment of interactor (log2),[5],4.98
same,PRISMA enrichment of interactor (log2),[6],5.95
same,PRISMA enrichment of interactor (log2),[7],4.48
same,PRISMA enrichment of interactor (log2),[8],5
same,PRISMA enrichment of interactor (log2),[9],7.69
same,PRISMA enrichment of interactor (log2),[10],5.83
same,PRISMA enrichment of interactor (log2),[11],6.49
same,PRISMA enrichment of interactor (log2),[12],4.66
same,PRISMA enrichment of interactor (log2),[13],5.13
same,PRISMA enrichment of interactor (log2),[14],4.36
same,PRISMA enrichment of interactor (log2),[15],6.84
same,PRISMA enrichment of interactor (log2),[16],6.23
same,PRISMA enrichment of interactor (log2),[17],5.11
same,PRISMA enrichment of interactor (log2),[18],6.13
same,PRISMA enrichment of interactor (log2),[19],4.92
same,PRISMA enrichment of interactor (log2),[20],4.63
same,PRISMA enrichment of interactor (log2),[21],5
same,PRISMA enrichment of interactor (log2),[22],8.34
same,PRISMA enrichment of interactor (log2),[23],3.68
same,PRISMA enrichment of interactor (log2),[24],4.09
same,PRISMA enrichment of interactor (log2),[25],4.82
same,PRISMA enrichment of interactor (log2),[26],4.95
same,PRISMA enrichment of interactor (log2),[27],6.8
same,PRISMA enrichment of interactor (log2),[28],5.7
same,PRISMA enrichment of interactor (log2),[29],4.94
same,PRISMA enrichment of interactor (log2),[30],4.19
same,PRISMA enrichment of interactor (log2),[31],5.19
same,PRISMA enrichment of interactor (log2),[32],4.31
same,PRISMA enrichment of interactor (log2),[33],4.09
same,PRISMA enrichment of interactor (log2),[34],5.3
same,PRISMA enrichment of interactor (log2),[35],7.56
same,PRISMA enrichment of interactor (log2),[36],4.71
same,PRISMA enrichment of interactor (log2),[37],9.25
same,PRISMA enrichment of interactor (log2),[38],5.6
same,PRISMA enrichment of interactor (log2),[39],4.75
same,PRISMA enrichment of interactor (log2),[40],4.24
same,PRISMA enrichment of interactor (log2),[41],4.8
same,PRISMA enrichment of interactor (log2),[42],5.8
same,PRISMA enrichment of interactor (log2),[43],7.19
same,PRISMA enrichment of interactor (log2),[44],6.03
same,PRISMA enrichment of interactor (log2),[45],5.01
same,PRISMA enrichment of interactor (log2),[46],6.1
same,PRISMA enrichment of interactor (log2),[47],4.64
VFEELLSQWDAALKS [RP11-140K17.3],PRISMA enrichment of interactor (log2),[48],4.81
same,PRISMA enrichment of interactor (log2),[49],6.24
same,PRISMA enrichment of interactor (log2),[50],4.3
same,PRISMA enrichment of interactor (log2),[51],6.89
same,PRISMA enrichment of interactor (log2),[52],3.99
same,PRISMA enrichment of interactor (log2),[53],7.81
same,PRISMA enrichment of interactor (log2),[54],4.49
same,PRISMA enrichment of interactor (log2),[55],3.76
same,PRISMA enrichment of interactor (log2),[56],3.83
same,PRISMA enrichment of interactor (log2),[57],5.24
RATAAPLRLGGASRR [RNF10],PRISMA enrichment of interactor (log2),[58],4.28
same,PRISMA enrichment of interactor (log2),[59],7.12
same,PRISMA enrichment of interactor (log2),[60],4.73
same,PRISMA enrichment of interactor (log2),[61],5.1
same,PRISMA enrichment of interactor (log2),[62],8.13
same,PRISMA enrichment of interactor (log2),[63],3.77
same,PRISMA enrichment of interactor (log2),[64],4.69
same,PRISMA enrichment of interactor (log2),[65],5.31
same,PRISMA enrichment of interactor (log2),[66],4.98
same,PRISMA enrichment of interactor (log2),[67],5.45
same,PRISMA enrichment of interactor (log2),[68],5.52
same,PRISMA enrichment of interactor (log2),[69],3.92
same,PRISMA enrichment of interactor (log2),[70],4.75
same,PRISMA enrichment of interactor (log2),[71],4.13
same,PRISMA enrichment of interactor (log2),[72],4.92
same,PRISMA enrichment of interactor (log2),[73],8.12
same,PRISMA enrichment of interactor (log2),[74],4.4
same,PRISMA enrichment of interactor (log2),[75],7.24
same,PRISMA enrichment of interactor (log2),[76],4.99

# Part of the list above, reformatted:
binder | measurement | setting | value
ALPLLSSLCMAMVRK [IDI2-AS1] | PRISMA enrichment of interactor (log2) | [6] | 5.95
same | PRISMA enrichment of interactor (log2) | [8] | 5
same | PRISMA enrichment of interactor (log2) | [14] | 4.36
same | PRISMA enrichment of interactor (log2) | [20] | 4.63
same | PRISMA enrichment of interactor (log2) | [28] | 5.7
same | PRISMA enrichment of interactor (log2) | [30] | 4.19
same | PRISMA enrichment of interactor (log2) | [38] | 5.6
same | PRISMA enrichment of interactor (log2) | [44] | 6.03
VFEELLSQWDAALKS [RP11-140K17.3] | PRISMA enrichment of interactor (log2) | [52] | 3.99
same | PRISMA enrichment of interactor (log2) | [53] | 7.81
same | PRISMA enrichment of interactor (log2) | [54] | 4.49
same | PRISMA enrichment of interactor (log2) | [55] | 3.76
RATAAPLRLGGASRR [RNF10] | PRISMA enrichment of interactor (log2) | [58] | 4.28
same | PRISMA enrichment of interactor (log2) | [61] | 5.1
same | PRISMA enrichment of interactor (log2) | [63] | 3.77
same | PRISMA enrichment of interactor (log2) | [65] | 5.31
same | PRISMA enrichment of interactor (log2) | [66] | 4.98
same | PRISMA enrichment of interactor (log2) | [67] | 5.45
